{"sequences": {"note": "Chains of the proteins cited; added tags and fusions are not shown. Lines headed by an entry give the natural chain unless they say otherwise; changes in a name come on top.", "UniProt Q7XJM8": "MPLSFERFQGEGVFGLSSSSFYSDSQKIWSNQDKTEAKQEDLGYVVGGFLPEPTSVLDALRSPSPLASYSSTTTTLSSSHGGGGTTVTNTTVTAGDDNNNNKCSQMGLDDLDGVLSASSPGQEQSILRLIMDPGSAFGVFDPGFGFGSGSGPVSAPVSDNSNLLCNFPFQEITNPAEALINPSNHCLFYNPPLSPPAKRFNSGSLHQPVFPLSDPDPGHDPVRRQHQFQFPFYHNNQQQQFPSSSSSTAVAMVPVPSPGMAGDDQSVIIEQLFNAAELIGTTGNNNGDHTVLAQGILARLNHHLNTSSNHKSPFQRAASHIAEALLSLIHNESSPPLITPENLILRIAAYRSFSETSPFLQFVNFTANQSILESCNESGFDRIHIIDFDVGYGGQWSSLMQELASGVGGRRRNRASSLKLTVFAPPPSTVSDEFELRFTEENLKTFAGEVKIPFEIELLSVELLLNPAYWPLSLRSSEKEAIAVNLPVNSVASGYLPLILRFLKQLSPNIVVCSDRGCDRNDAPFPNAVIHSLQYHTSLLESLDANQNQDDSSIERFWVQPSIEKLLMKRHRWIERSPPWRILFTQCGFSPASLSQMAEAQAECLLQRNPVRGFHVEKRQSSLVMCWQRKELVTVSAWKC"}, "source": "paper PMC3974651", "target": "T1, SQUAMOSA PROMOTER BINDING PROTEIN LIKE 9 (SPL9), yeast two-hybrid fusion (Arabidopsis thaliana) (UniProt Q700W2)", "T1 sequence": "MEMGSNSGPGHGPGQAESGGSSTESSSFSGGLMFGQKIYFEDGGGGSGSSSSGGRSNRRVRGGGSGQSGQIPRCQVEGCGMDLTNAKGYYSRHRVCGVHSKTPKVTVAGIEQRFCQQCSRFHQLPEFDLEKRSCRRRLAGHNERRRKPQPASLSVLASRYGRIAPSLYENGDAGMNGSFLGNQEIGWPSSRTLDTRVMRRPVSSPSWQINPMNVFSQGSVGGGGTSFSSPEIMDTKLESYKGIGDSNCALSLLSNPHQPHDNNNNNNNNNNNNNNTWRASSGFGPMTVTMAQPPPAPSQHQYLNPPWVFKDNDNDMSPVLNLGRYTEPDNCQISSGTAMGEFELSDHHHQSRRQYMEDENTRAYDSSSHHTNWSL", "experiment": "two-hybrid; Matchmaker GAL4 Two-Hybrid System, yeast strain AH109, growth on SD/-Leu/-Trp/-His with 15 mM 3-amino-1,2,4-triazole; three independent clones for each transformation", "note": "No constants are given. Whether binding was seen depends on the method and setting. Binding can be weak; no strength is given. Sequences can lack the tags named with a protein.", "data": [{"substance": "N-terminal (1-250) of LOM1, yeast two-hybrid fusion (from UniProt Q7XJM8) (domain or fragment)", "values": [{"measurement": "binding", "result": "binds"}]}]}
